Assay results reported in US6248716A (priority 1999, dated 2001).
Some peptides are written in HELM: one residue between dots, names in brackets for other building blocks, links after the first $. Non-standard residues stand in square brackets, D forms with d. *: point of attachment. dOrn = NCCC[C@@H](N)C(=O)O; Cbz = O=C(OCc1ccccc1)*; Boc = CC(C)(C)OC(=O)*; Bn = c1ccc(C*)cc1

Assay: general procedure: solution-phase peptide synthesis; isobutyl chloroformate/N-methyl morpholine (mixed anhydride); dicyclohexyl carbo

Substance | step yield (late stage modification step) [%] | step yield (coupling step) [%]
PEPTIDE1{R.Y.[D-Orn].F.[dA]}$$$$V2.0 | 80.8 | –
Z3 -Arg-Tyr(Bzl)-D-Orn(Z)-Phe-D-Ala-OH | – | 92.0
Boc-Arg (NO2)-Tyr-D-Ala-Phe-Gly-oBzl | – | 87.2
PEPTIDE1{Y.[D-Orn].F.[dE]}$$$$V2.0 | 98.8 | –
Boc-Tyr(Bzl)-D-Orn(Z)-Phe-D-Glu-(oBzl)2 | – | 93.2
Boc-Tyr(Boc)-D-Ala-Phe-Gly-oBzl | – | 83.4
TFA.Tyr-D-Ala-Phe-Gly-oBzl | 100 | –
TFA.H-Tyr(Bzl)-D-Orn(Z)-Phe-D-Ala-OH | 100 | –
Boc-Y(Bn)[dOrn](Cbz)F[dA]-OH | – | 82.0
